From patent publication US10064926B2, “Peptides and combination of peptides for use in immunotherapy against hepatocellular carcinoma (HCC) and other cancers” (Immatics biotechnologies GmbH, priority 2014, dated 2018)

Experiments:
[1] = test system: primary HCC tissue samples; experiment: Identification and label-free LC-MS relative quantitation of HLA-presented peptides (presentation profiles/scores), HCC versus normal tissues; parameters: species or system human; key to PeptidePresentation (presentation score): very highly over-presented on tumors compared to a panel of normal tissues (+++); highly over-presented on tumors compared to a panel of normal tissues (++); over-presented on tumors compared to a panel of normal tissues (+); details: HCC tumors compared to a panel of normal tissues
[2] = test system: tumor samples of other tumor types; experiment: Over-presentation of peptides on additional tumor types versus normal tissues (LC-MS); parameters: species or system human; details: over-presentation on more than 5% of the measured tumor samples, or presentation on more than 5% with ratio of geometric means tumor vs normal tissues larger than 3

Row | Substance | PeptidePresentation (presentation score) [1] | Additional Entities (additional tumor types on which the peptide was found over-presented) [2] | Other relevant organs/diseases (additional tumor types on which the peptide was found over-presented) [2]
1 | 190 (RYNEKCFKL; listed as Homo sapiens) [compound 190] | +++ | NSCLC | 
2 | 191 (KYPDIISRI; listed as Homo sapiens) [compound 191] | ++ | NSCLC, GC | Brain
3 | 192 (SYITKPEKW; listed as Homo sapiens) [compound 192] | + | NSCLC | Kidney, Brain
4 | 193 (IYPGAFVDL; listed as Homo sapiens) [compound 193] | +++ | NSCLC | Brain
5 | 194: peptide found in PLK4 (gene looked up) (QYASRFVQL; listed as Homo sapiens) [compound 194] | +++ | NSCLC, GC | Brain
6 | 195 (RYAPPPSFSEF; listed as Homo sapiens) [compound 195] | +++ | NSCLC | Brain
7 | 196 (AYLKWISQI; listed as Homo sapiens) [compound 196] | +++ | NSCLC | Brain
8 | 197 (RWPKKSAEF; listed as Homo sapiens) [compound 197] | + | NSCLC | Kidney, Brain
9 | 198 (LYWSHPRKF; listed as Homo sapiens) [compound 198] | + | NSCLC | Kidney
10 | 202 (AYGTYRSNF; listed as Homo sapiens) [compound 202] | +++ | NSCLC | 
11 | 203 (YYGILQEKI; listed as Homo sapiens) [compound 203] | +++ | NSCLC | Kidney, Brain
12 | 206 (KWPETPLLL; listed as Homo sapiens) [compound 206] | +++ |  | Kidney, Brain
13 | 208 (SYNPAENAVLL; listed as Homo sapiens) [compound 208] | ++ | NSCLC | Brain
14 | 210 (AYPAIRYLL; listed as Homo sapiens) [compound 210] | ++ | NSCLC, GC | 
15 | 211 (IYIPSYFDF; listed as Homo sapiens) [compound 211] | ++ | NSCLC, Brain Cancer, GC | 
16 | 213 (YYNKVSTVF; listed as Homo sapiens) [compound 213] | + | NSCLC | 
17 | 214 (IYVTSIEQI; listed as Homo sapiens) [compound 214] | +++ | NSCLC, RCC | Brain
18 | 220 (SLLEKELESV; listed as Homo sapiens) [compound 220] | ++ | NSCLC, SCLC, PrC, CLL, BRCA, OC, Esophageal Cancer, Urinary bladder cancer, NHL | Brain
19 | 221 (ALCEENMRGV; listed as Homo sapiens) [compound 221] | + | NSCLC, SCLC, MCC, Melanoma | Kidney, Brain, Colon, Rectum

Row | Substance | PeptidePresentation (presentation score) [1] | Additional Entities (additional tumor types on which the peptide was found over-presented) [2] | Other relevant organs/diseases (additional tumor types on which the peptide was found over-presented) [2]
20 | 224 (ALASVIKEL; listed as Homo sapiens) [compound 224] | + | SCLC, PC, Melanoma | Brain
21 | 225 (KMDPVAYRV; listed as Homo sapiens) [compound 225] | + | CRC, PrC, BRCA, Urinary bladder cancer, Uterine Cancer | 
22 | 226 (AVLGPLGLQEV; listed as Homo sapiens) [compound 226] | + | PrC, Melanoma, OC | 
23 | 227 (ALLKVNQEL; listed as Homo sapiens) [compound 227] | + | Melanoma, Uterine Cancer | 
24 | 229 (KMFESFIESV; listed as Homo sapiens) [compound 229] | ++ | NSCLC, SCLC, PrC, OC, Urinary bladder cancer | Kidney, Brain, Colon, Rectum
25 | 230 (VLTEFTREV; listed as Homo sapiens) [compound 230] | + | NSCLC, SCLC, CLL, BRCA, Melanoma, OC, Esophageal Cancer, Urinary bladder cancer, Uterine Cancer, Gallbladder Cancer, Bile Duct Cancer, NHL | Kidney, Brain, Colon, Rectum
26 | 231 (RLFNDPVAMV; listed as Homo sapiens) [compound 231] | ++ | NSCLC, SCLC, MCC, Melanoma, OC, Urinary bladder cancer, Gallbladder Cancer, Bile Duct Cancer | Brain, Colon, Rectum
27 | 234 (YLEPYLKEV; listed as Homo sapiens) [compound 234] | + | NSCLC, SCLC, BRCA, Melanoma, OC, Esophageal Cancer, Urinary bladder cancer, Uterine Cancer, Gallbladder Cancer, Bile Duct Cancer, AML, NHL, PC | Kidney, Brain, Colon, Rectum
28 | 236 (ALADKELLPSV; listed as Homo sapiens) [compound 236] | ++ | NSCLC, SCLC, GC, Melanoma, OC, Esophageal Cancer, Urinary bladder cancer, Gallbladder Cancer, Bile Duct Cancer, NHL | Kidney, Colon, Rectum, Pancreas
29 | 237 (ALRGEIETV; listed as Homo sapiens) [compound 237] | +++ | SCLC, BRCA, OC, Esophageal Cancer, Urinary bladder cancer, NHL | Colon, Rectum
30 | 238 (AMPPPPPQGV; listed as Homo sapiens) [compound 238] | ++ | NSCLC, SCLC, BRCA, MCC, Melanoma, OC, Esophageal Cancer, Urinary bladder cancer, Gallbladder Cancer, Bile Duct Cancer, NHL | Brain, Colon, Rectum
31 | 239 (FLLGFIPAKA; listed as Homo sapiens) [compound 239] | + | Urinary bladder cancer, AML, NHL | Brain
32 | 240 (FLWERPTLLV; listed as Homo sapiens) [compound 240] | +++ |  | CLL
33 | 242 (GLFAPVHKV; listed as Homo sapiens) [compound 242] | + | Urinary bladder cancer | 
34 | 243 (GLLDNPELRV; listed as Homo sapiens) [compound 243] | +++ | Urinary bladder cancer | 
35 | 244 (KIAELLENV; listed as Homo sapiens) [compound 244] | + | NSCLC, SCLC, PrC, CLL, BRCA, Melanoma, OC, Uterine Cancer, AML, NHL | Brain, Colon, Rectum
36 | 245 (KLGAVFNQV; listed as Homo sapiens) [compound 245] | + | NSCLC, SCLC, RCC, PrC, BRCA, Melanoma, Esophageal Cancer, Urinary bladder cancer, Uterine Cancer | Brain
37 | 248 (KLNDLIQRL; listed as Homo sapiens) [compound 248] | + | GC, Uterine Cancer | Pancreas
